Data published in patent US20230176066A1, “PLASMON-ENHANCED FLUORO-DOT ASSAYS” (Washington University, priority 2021, published 2023).

Tested on: TNFα
Test: Comparison of fluorescent labels in the Fluoro-dot assay (signal, signal-to-noise ratio)
Design: species or system Mouse
Details: for fluorescence signal of secreted TNFα under epifluorescence microscope: LPS-treated JAWS II DCs, 90 minutes, biotinylated TNFα detection antibody
[1] = single cell secreting TNFα, line-scans

For “Cy5-plasmonic-fluor: Streptavidin-conjugated Cy5 plasmon-enhanced fluorescent nanolabel purchased from Auragent Bioscience”, the “fluorescence signal of secreted TNFα under epifluorescence microscope” value (“fluorescence signal of secreted TNFα” below) was “robust signal”, the “signal-to-noise ratio, higher compared to conventional fluorophore” value [1] was roughly 45 fold and the “signal-to-noise ratio, higher compared to quantum dots” value [1] was roughly 10 fold.
For “Strep-Qdot™ 655: streptavidin-quantum dot 655 (Thermo Fisher Scientific Q10123MP)”, the “fluorescence signal of secreted TNFα” value was “very faint signal” and the “fluorescence signal of secreted TNFα” value (listed as quantum dots) was “no discernable signal”.
“conventional fluorophores: streptavidin-Cy5 (Thermo Fisher Scientific SA1011) used as conventional fluorophore” was tested, and the “fluorescence signal of secreted TNFα” value was “a signal could not be discerned” and the “fluorescence signal of secreted TNFα” value (listed as conventional fluorophore) was “no discernable signal”.
